Data taken from patent publication US20190177366A1.
These are yes or no findings as the source states them, for the method shown. Binding can be weak; no strength is given. Blank lines part the entries; values can stand above or below the binder they belong to.

Sequences of proteins named here, by UniProt entry; tags and fusion partners are left off. A change or cut given only in a name is not applied to a line headed by its entry.
UniProt Q8NBP7: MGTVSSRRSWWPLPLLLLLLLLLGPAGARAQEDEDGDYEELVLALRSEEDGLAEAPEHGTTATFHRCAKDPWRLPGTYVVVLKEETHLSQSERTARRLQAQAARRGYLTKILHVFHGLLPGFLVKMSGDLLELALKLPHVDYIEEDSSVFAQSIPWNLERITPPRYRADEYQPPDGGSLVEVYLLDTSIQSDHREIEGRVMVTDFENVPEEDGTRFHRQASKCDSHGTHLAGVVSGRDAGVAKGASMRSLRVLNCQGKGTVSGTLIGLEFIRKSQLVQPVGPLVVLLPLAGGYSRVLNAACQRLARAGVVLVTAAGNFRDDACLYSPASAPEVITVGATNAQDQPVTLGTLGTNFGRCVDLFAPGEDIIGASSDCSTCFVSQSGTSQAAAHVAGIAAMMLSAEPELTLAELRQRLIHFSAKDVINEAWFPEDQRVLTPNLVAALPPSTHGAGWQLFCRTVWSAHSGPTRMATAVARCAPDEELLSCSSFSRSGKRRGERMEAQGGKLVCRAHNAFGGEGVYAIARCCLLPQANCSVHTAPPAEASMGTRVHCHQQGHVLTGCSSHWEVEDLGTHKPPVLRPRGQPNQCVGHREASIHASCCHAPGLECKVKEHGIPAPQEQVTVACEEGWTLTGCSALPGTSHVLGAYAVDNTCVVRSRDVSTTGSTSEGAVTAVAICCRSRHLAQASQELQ

Biological target: PCSK9Δhelix (human) (UniProt Q8NBP7)
Assay: phage spot ELISA

binding: binds
B1: SEQ ID NO 328 (peptide)
chain: TAFTSWEEYLDWVGSGCPFYDWRCSDFS

binding: binds
B2: SEQ ID NO 320 (peptide)
chain: TAFTSWEEYLDWVGSGGEYLWNLKRLES

binding: binds
B3: SEQ ID NO 322 (peptide)
chain: TAFTSWEEYLDWVGSGMVYVDRGVRVFT

binding: binds
B4: SEQ ID NO 315 (peptide)
chain: TAFTSWEEYLDWVGSGVPWNLAKI

binding: binds
B5: SEQ ID NO 327 (peptide)
chain: TAFTSWEEYLDWVGSGACLNHFVSGNMIRC

binding: binds
B6: SEQ ID NO 321 (peptide)
chain: TAFTSWEEYLDWVGSGTRYADRGVMVYSLS

binding: binds
B7: SEQ ID NO 314 (peptide)
chain: TAFTSWEEYLDWVGSGVPWNLARL

binding: binds
B8: SEQ ID NO 312 (peptide)
chain: TAFTSWEEYLDWVGSGKLWNLTRISS

binding: binds
B9: SEQ ID NO 319 (peptide)
chain: TAFTSWEEYLDWVGSGALWNMRRVESVAFR

binding: binds
B10: SEQ ID NO 325 (peptide)
chain: TAFTSWEEYLDWVGSGKNNYAYLINMPRAPGI

binding: binds
B11: SEQ ID NO 309 (peptide)
chain: TAFTSWEEYLDWVGSGGPWNLNRV

binding: binds
B12: SEQ ID NO 6 (peptide)
chain: TAFTSWEEYLDWVGSGCWNLKRIGSQGC

binding: binds
B13: SEQ ID NO 323 (peptide)
chain: TAFTSWEEYLDWVGSGGCVKYRGSVSCQESKT

binding: binds
B14: SEQ ID NO 310 (peptide)
chain: TAFTSWEEYLDWVGSGPLLWNLQKVH

binding: binds
B15: SEQ ID NO 317 (peptide)
chain: TAFTSWEEYLDWVGSGNELWNINRLRSS

binding: binds
B16: SEQ ID NO 324 (peptide)
chain: TAFTSWEEYLDWVGSGEHQFYSYRGVDVYR

binding: binds
B17: SEQ ID NO 306 (peptide)
chain: TAFTSWEEYLDWVGSGKLWNLGRV

binding: binds
B18: SEQ ID NO 311 (peptide)
chain: TAFTSWEEYLDWVGSGSCSWNVERIRGCSV

binding: binds
B19: SEQ ID NO 316 (peptide)
chain: TAFTSWEEYLDWVGSGGHPLWNLSRI

binding: binds
B20: SEQ ID NO 318 (peptide)
chain: TAFTSWEEYLDWVGSGMPWNLARIER

binding: binds
B21: SEQ ID NO 307 (peptide)
chain: TAFTSWEEYLDWVGSGNCWSSLRGICENLG

binding: binds
B22: SEQ ID NO 326 (peptide)
chain: TAFTSWEEYLDWVGSGRGGYELNIPR

binding: binds
B23: SEQ ID NO 329 (peptide)
chain: TAFTSWEEYLDWVGSGNVRCYRDVPSCS

binding: binds
B24: SEQ ID NO 313 (peptide)
chain: TAFTSWEEYLDWVGSGVVLWNHSRIL

binding: binds
B25: SEQ ID NO 308 (peptide)
chain: TAFTSWEEYLDWVGSGVLWNHSRI
